Experimental data reported in paper PMC4527783 (PLoS ONE, 2015).
No constants are given. Whether binding was seen depends on the method and setting. Binding seen in cells or lysates may run through a third protein. Some results given as binding are weak or reduced against the parent protein; the word gives no strength.

The chains behind the UniProt entries cited, without tags or fusion partners. Residues count along the entry.
UniProt P41146: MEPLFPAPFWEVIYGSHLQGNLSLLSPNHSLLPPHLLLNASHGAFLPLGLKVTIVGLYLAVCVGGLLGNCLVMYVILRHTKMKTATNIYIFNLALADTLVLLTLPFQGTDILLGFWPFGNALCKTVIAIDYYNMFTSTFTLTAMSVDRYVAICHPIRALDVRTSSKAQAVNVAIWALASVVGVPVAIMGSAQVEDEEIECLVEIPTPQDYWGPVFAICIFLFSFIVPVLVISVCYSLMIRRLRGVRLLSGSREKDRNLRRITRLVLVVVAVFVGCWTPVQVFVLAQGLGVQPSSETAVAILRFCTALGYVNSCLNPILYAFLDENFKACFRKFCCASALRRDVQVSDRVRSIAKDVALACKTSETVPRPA
UniProt P32121, residues 2-409: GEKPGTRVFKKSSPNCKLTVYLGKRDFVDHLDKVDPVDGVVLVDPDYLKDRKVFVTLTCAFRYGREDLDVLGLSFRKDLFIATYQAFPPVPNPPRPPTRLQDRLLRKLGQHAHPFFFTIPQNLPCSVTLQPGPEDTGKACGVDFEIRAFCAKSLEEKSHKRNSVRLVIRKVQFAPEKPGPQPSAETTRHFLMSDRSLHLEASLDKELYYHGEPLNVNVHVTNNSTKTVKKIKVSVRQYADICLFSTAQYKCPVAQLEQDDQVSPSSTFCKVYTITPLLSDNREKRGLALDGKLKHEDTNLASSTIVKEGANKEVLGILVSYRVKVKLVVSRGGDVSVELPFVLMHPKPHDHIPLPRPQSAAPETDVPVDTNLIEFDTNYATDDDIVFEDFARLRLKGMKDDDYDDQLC

Target: Human NOP Rluc-tagged fusion protein (N/OFQ peptide receptor fused to Renilla luciferase) (human) (UniProt P41146)
Experiment: FRET or BRET; BRET between NOP-RLuc and β-arrestin 2-RGFP in whole co-expressing HEK293 cells (100,000 cells/well), DPBS with 0.5 mM MgCl2 and 0.9 mM CaCl2, coelenterazine 5 μM, agonist added 5 min before reading, room temperature; also after PTX 10 ng 20 h (negligible effect)

binding: binds
Substance: Human β-arrestin 2 tethered to the C terminus of RGFP (from UniProt P32121 2-409)
